Source: paper PMC13221179
These are yes or no findings as the source states them, for the method shown. Binding seen in cells or lysates may run through a third protein. Some binding calls cover weakened binding; strength is not graded here.

Target: Flag-tagged SARS-CoV-2 envelope protein E (SARS-CoV-2) (UniProt P0DTC4)
Assay: co-IP

ubiquitinated s-tag-fused SARS-CoV-2 membrane protein M (from UniProt P0DTC5 1-222)
binding: binds
